Measured values taken from patent US11072583B2, “Indole (sulfomyl) n-hydroxy benzamide derivatives as selective HDAC inhibitors” (COUNCIL OF SCIENTIFIC & INDUSTRIAL RESEARCH, priority 2017, dated 2021).
pIC50: −log10 of the molar value.

Experiments:
Format in all cases: cell-based, human
[1] = system: HeLa (Cervical cancer cell line); assay: Anti-proliferative assay (Cell Titer-Glo), HeLa; conditions: Table 1, reference compounds; read-out: IC50 HeLa cells
Method: (§1) Cell culture & Reagents: All cell lines, used for the anti-proliferative screen, were obtained from American Type Culture Collection (ATCC). HeLa (Cervical cancer cell line), MCF-7 (Breast cancer cell line) and DU-145 (Prostate cancer cell line) were cultured in Dulbecco's modified Eagle's medium (DMEM, GIBCO), containing 10% fetal bovine serum (FBS; Life Technologies), penicillin and streptomycin (10,000 U/mL), at 37° C. and in 5% CO2. Cell Titer-Glo® Luminescent Cell Viability Assay kit (Cat No. G7573) was purchased from Promega to determine the number of viable cells in culture based on quantitation of the ATP present, which signals the presence of metabolically active cells.
(§2) Anti-Proliferative assay: For anti-proliferative screening, 2500 cells per well (For HeLa and DU-145 cell lines) and 5000 cells per well (for MCF-7 cell line) numbers of cells were seeded in a white opaque plate and incubated for 24 Hrs in 5% CO2 incubator at 37° C. […] After incubating at room temperature for 30 minutes, luminescence was captured using luminescence plate reader (EnVision® Multilabel Plate Reader from Perkin Elmer). Generated data was exported to the excel file and data was analyzed using Graph Pad Prism to calculate IC50 value of the unknown inhibitor. […]

[2] = system: MCF-7 (Breast cancer cell line); assay: Anti-proliferative assay (Cell Titer-Glo), MCF-7; conditions: Table 1, reference compounds; read-out: IC50 MCF-7 cells
Method: as §1, §2

[3] = system: SKOV3 (Ovarian cancer cells); assay: Anti-proliferative assay, SKOV3; conditions: Table 1, reference compounds
Method: as §1, §2

SMILES: O=C(CCCCCCC(=O)Nc1ccccc1)NO [SAHA]
- pIC50 [1]: 5.62
- pIC50 [2]: 6.21
- pIC50 [3]: 5.86
